At least one structure is not confirmed: it was looked up by name or label, or the drawing left a doubt.
How the values were obtained:
[1] = target: TRIP8b mediated HCN1 surface trafficking (Homo sapiens (Human), UniProt Q8IYB4); test: Flow cytometry of surface HCN1 expression; type: cell-based; conditions: HEK293 cells, HA-HCN1 with or without TRIP8b, 3-18 μM overnight
[2] = target: TRIP8b mediated HCN channel regulation (HCN2) (Homo sapiens (Human), UniProt Q8IYB4); test: HEK electrophysiology (whole cell recordings of Ih); type: cell-based
[3] = target: TRIP8b (Homo sapiens (Human), UniProt Q8IYB4); test: Saturation Transfer Difference (STD) NMR; type: binding; conditions: 2 mM ligand, 20 μM TRIP8b
[4] = system: HCN channels in CA1 pyramidal neurons; test: Slice electrophysiology in CA1 pyramidal neurons; type: cell-based, mice; conditions: 15 μM vs 0 μM
Experimental: Slice Electrophysiology. Whole cell recordings from CA1 pyramidal neurons were performed using an electrophysiology rig described previously (Zhou et al., 2013; 2015). 300 micron sagittal sections were made from male and female mice with 5 μM CGP52432, 2 μM SR-95531, and 10 μM MK-801 to block GABAB, GABAA, and NMDAR. ACSF was composed of 125 mM NaCl, 2.5 mM KCl, 25 mM NaHCO3, 1.25 mM Na2PO4, 1 mM MgCl2, 2 mM CaCl2), and 25 mM glucose while the internal solution was 115 mM K-gluconate, 20 mM KCl, 10 mM Na2Phosphocreatinine, 2 mM MgATP, and 0.3 mM NaGTP. NUCC-0200590 was incubated in the slice chamber in a subset of experiments as described in the text. Current clamp recordings were performed at a holding potential of −70 mV.

Amino acid sequences for entries named in this document (tags omitted). Chains listed by the source or under a name are the forms on record and can include a tag or linker.
UniProt Q8IYB4, other isoform, or with tags, fused parts or gaps: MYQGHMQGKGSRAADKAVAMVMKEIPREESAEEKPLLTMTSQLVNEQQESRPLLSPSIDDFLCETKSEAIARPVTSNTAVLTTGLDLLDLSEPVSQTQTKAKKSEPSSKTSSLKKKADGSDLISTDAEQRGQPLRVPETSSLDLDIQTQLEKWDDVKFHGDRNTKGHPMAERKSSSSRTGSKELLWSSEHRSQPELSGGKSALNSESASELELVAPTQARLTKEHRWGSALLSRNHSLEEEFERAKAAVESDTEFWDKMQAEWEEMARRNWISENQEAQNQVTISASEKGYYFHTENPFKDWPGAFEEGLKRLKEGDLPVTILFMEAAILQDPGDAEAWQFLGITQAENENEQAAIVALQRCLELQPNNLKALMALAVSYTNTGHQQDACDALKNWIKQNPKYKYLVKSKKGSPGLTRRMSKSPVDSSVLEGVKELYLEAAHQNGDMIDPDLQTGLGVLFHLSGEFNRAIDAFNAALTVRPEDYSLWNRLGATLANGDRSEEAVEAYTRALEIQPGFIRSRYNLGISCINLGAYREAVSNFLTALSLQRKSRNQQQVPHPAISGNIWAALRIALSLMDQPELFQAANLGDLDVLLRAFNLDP

[5] = system: TRIP8b mediated HCN channel trafficking; test: Immunohistochemistry of HCN1 after unilateral injection; type: in vivo; conditions: Trip8b+/+ mice, unilateral injection of 10 μM, 48 hours
[6] = DMSO needed in PBS to see proton signals in 1H-NMR (aqueous solubility); type: physicochemical; conditions: PBS (pH 7.4)
Text: Solubility and Mouse Microsomal Stability. […] In order to improve the aqueous solubility to support additional biochemical assays we made and characterized several salt forms. The formic acid (FA) salt was recovered after reverse-phase preparative HPLC while using formic acid as a modifier. […] On stirring the free amine in 4M HCl in dioxane, the compound was converted to the HCl salt as a white solid (Scheme 1). […] As a result, the HCl-salt of NUCC-0200590 was used for biophysical assays. The inhibitor was also screened for in vitro stability towards mouse liver microsomes to evaluate its potential metabolism and suitability for future in vivo experiments. The microsomal stability was measured after a 60-minute incubation at 37° C. with mouse liver microsomes. The compound was almost completely consumed by mouse liver microsomes after a 60-minute incubation as only 3.7% of the parent compound remained.

[7] = HEK293 cells HCN2 + TRIP8b, 5 μM, varying time

For CN1CCN(Cc2cc(-c3ccc(F)cc3)ccc2OCC(=O)NCc2ccc(Cl)cc2)CC1 [NUCC-0200590, N-(4-chlorobenzyl)-2-((4′-fluoro-3-((4-methylpiperazin-1-yl)methyl)-[1,1′-biphenyl]-4-yl)oxy)acetamide], the “surface HCN1 expression” value [1] was “disrupts TRIP8b mediated HCN1 surface trafficking”, the “current density of Ih, time course” value [2, 7] was “significant differences only when comparing less than 1 hour with greater than 24 hours” and the “half activation potential (V50) of Ih, time course” value [2, 7] was “effect of time”. For the same compound, the “V50 of Ih” value ([2]; HEK cells stably expressing HCN2, with or without TRIP8b, 2.5-10 μM, 24 hours) was “no effect of TRIP8b on the V50 of Ih”, the “current density of Ih” value ([2]; HEK cells stably expressing HCN2, with or without TRIP8b, increasing concentrations, 24 hours) was “less current density of Ih” and the “saturation transfer (STD-NMR)” value [3] was “clear evidence of saturation transfer”. For the same compound, the “excitability (number of action potentials fired)” value ([4]; Trip8b+/+ CA1 pyramidal neurons) was “No difference between the two conditions”, the “excitability (number of action potentials fired)” value ([4]; Trip8b−/− CA1 pyramidal neurons) was “no difference between the two conditions” and the “HCN1 staining, injected vs uninjected hemisphere” value [5] was “significant reduction in HCN1 staining”. The “DMSO in PBS required to see proton signals in 1H-NMR” value [6] was 35%.
